# Some of the results follow.
# Experiments:
# Assay in all cases: protein microarray (ProtoArray v5.0), streptavidin-Alexa Fluor 647
# Conditions in all cases: 3'-biotin; 20 mM Tris (pH 7.5), 5 mM MgCl2, 100 mM KCl, 0.1% Tween-20, A/T-rich and random oligonucleotide blockers; temperature not stated; high values mean tight binding
# [1] = test system: SKP1A (human)
# [2] = test system: SLAMF1 (human)
# [3] = test system: SLC10A1 (human)
# [4] = test system: SLC16A4 (human)
# [5] = test system: SLC22A18AS (human)
# [6] = test system: SLC22A6 (human)
# [7] = test system: SLC23A2 (human)
# [8] = test system: SLC25A13 (human)
# [9] = test system: SLC25A27 (human)
# [10] = test system: SLC25A29 (human)
sequence,measurement,setting,value
GGGAGGCTGAGGCAGG [G4-1 biotinylated (PQS2)],binding signal,[1],-0.365 z-score
same,binding signal,[2],-0.246 z-score
same,binding signal,[3],-0.291 z-score
same,binding signal,[4],-0.301 z-score
same,binding signal,[5],-0.284 z-score
same,binding signal,[6],-0.299 z-score
same,binding signal,[7],-0.295 z-score
same,binding signal,[8],-0.303 z-score
same,binding signal,[9],-0.266 z-score
same,binding signal,[10],-0.262 z-score

# — PMC5996148
